Data taken from the supplement of paper PMC10849652.
The list shows a part of the results.

Sequences of proteins named here, by UniProt entry; tags and fusion partners are left off. A change or cut given only in a name is not applied to a line headed by its entry.
UniProt Q5BKX6: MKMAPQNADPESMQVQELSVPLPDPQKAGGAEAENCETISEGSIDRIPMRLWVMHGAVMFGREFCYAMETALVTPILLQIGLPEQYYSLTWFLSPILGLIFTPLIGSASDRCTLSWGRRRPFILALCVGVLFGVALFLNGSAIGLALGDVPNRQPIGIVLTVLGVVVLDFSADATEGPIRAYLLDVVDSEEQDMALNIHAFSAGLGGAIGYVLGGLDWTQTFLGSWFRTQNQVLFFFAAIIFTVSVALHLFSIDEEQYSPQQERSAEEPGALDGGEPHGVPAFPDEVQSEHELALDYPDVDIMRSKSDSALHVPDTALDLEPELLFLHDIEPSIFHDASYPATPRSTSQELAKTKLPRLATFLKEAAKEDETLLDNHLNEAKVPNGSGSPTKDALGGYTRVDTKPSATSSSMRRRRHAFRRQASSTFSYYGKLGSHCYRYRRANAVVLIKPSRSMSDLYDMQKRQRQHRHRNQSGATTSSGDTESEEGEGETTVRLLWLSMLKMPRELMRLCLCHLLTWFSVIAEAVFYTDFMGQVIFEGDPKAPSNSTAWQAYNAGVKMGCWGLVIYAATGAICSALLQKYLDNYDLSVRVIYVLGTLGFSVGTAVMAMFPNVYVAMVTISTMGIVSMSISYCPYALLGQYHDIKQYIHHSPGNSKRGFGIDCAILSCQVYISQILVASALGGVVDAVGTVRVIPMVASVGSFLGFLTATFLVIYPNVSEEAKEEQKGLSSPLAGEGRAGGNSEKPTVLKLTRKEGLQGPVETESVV
UniProt Q96A29: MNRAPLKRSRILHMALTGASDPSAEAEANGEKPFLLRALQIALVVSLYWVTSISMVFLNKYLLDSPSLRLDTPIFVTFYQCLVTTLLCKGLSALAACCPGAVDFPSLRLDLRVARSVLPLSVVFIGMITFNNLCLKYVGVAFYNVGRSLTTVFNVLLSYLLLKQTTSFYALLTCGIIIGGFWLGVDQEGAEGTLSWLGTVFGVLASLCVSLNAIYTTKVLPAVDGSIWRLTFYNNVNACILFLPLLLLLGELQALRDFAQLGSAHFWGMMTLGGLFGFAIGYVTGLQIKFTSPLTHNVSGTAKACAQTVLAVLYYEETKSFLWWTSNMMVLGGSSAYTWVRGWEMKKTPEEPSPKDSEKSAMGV
UniProt Q9UPY5: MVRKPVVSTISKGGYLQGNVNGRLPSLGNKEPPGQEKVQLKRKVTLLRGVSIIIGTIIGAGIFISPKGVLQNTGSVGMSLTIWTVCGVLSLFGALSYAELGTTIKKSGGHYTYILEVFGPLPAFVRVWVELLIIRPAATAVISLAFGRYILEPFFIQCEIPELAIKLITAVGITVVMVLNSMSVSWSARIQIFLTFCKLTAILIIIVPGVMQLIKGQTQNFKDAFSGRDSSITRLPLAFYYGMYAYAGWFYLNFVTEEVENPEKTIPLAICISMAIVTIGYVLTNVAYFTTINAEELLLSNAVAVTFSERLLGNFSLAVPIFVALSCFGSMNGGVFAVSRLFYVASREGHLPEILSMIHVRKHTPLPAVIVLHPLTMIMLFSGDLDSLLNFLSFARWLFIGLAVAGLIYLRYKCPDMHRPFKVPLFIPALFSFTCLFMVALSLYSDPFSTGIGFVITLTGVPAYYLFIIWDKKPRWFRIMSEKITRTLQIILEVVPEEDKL
UniProt P53794: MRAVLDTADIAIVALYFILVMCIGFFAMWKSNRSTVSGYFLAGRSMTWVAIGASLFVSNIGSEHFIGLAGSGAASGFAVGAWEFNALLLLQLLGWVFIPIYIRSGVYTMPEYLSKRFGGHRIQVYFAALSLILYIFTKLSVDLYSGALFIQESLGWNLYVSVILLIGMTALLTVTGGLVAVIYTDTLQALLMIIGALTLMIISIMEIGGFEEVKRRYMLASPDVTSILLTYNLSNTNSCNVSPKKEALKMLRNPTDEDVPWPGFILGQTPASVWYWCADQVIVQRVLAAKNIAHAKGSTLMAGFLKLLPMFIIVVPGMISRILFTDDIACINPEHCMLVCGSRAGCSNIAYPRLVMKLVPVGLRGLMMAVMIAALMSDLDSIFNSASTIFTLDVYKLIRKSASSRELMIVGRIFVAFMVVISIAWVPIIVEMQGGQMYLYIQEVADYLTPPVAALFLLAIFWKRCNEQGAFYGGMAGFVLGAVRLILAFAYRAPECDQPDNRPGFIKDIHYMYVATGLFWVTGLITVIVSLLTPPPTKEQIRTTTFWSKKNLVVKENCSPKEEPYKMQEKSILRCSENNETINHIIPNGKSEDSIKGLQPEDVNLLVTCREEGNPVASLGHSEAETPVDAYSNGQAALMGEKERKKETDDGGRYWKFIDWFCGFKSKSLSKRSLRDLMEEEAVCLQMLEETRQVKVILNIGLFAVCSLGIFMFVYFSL
UniProt Q9BSK2: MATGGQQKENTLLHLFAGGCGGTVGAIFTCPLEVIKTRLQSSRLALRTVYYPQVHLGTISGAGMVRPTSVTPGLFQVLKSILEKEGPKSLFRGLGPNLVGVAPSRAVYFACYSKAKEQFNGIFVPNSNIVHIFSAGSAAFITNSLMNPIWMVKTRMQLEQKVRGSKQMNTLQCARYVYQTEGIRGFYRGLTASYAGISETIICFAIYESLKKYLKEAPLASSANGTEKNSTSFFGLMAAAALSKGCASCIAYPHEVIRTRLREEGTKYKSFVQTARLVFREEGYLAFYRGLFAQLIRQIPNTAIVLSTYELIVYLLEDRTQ
UniProt Q70HW3: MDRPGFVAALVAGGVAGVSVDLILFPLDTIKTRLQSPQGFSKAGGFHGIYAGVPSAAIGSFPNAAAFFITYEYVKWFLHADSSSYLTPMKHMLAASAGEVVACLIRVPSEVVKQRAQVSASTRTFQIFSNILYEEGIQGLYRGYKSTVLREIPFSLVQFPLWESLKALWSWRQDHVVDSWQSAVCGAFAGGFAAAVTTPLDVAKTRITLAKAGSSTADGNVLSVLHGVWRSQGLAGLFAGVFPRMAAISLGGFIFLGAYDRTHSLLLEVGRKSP
UniProt Q9H1N7: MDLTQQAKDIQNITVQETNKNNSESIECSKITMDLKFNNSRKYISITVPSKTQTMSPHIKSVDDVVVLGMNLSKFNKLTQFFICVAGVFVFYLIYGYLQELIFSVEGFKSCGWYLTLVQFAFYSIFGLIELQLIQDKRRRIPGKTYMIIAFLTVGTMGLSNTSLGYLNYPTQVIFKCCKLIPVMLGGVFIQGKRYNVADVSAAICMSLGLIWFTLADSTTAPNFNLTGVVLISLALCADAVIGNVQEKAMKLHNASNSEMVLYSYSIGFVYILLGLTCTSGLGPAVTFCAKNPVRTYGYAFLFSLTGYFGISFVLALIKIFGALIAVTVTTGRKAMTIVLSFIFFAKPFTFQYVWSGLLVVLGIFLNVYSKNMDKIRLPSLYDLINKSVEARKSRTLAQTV
UniProt Q8IXU6: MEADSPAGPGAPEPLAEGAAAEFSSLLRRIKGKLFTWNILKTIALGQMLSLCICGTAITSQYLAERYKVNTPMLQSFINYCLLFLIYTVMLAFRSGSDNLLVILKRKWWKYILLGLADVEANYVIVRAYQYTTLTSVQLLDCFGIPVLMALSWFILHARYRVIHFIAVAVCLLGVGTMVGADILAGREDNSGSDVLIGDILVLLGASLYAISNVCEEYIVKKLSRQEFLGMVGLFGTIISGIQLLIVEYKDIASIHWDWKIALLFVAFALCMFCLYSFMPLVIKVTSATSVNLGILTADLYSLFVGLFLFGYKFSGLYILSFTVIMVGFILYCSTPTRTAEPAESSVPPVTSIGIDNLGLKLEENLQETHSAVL
UniProt P50443: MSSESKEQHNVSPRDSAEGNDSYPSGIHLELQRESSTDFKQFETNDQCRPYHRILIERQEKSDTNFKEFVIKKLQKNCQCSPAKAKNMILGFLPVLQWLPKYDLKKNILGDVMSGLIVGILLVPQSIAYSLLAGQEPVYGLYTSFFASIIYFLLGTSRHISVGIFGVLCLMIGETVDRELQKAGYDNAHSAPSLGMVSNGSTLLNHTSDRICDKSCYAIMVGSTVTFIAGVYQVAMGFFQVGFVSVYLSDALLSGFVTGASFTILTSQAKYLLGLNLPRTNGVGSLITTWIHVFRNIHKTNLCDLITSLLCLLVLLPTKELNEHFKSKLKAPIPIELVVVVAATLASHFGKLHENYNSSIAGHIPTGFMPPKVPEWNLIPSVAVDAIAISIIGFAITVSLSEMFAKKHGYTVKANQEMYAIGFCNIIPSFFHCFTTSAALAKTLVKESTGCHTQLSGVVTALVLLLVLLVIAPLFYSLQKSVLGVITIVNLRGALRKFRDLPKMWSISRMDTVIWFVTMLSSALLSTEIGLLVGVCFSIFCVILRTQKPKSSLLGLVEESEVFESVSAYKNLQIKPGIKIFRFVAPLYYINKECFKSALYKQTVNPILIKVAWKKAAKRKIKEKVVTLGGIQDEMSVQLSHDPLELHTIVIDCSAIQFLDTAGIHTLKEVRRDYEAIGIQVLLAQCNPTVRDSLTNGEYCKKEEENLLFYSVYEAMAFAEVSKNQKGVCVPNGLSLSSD
UniProt Q6P1K1: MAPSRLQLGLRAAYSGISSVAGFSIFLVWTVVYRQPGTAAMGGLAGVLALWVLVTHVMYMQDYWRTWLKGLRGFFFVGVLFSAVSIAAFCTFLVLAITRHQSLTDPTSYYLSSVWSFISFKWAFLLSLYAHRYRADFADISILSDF
UniProt Q9HAB3: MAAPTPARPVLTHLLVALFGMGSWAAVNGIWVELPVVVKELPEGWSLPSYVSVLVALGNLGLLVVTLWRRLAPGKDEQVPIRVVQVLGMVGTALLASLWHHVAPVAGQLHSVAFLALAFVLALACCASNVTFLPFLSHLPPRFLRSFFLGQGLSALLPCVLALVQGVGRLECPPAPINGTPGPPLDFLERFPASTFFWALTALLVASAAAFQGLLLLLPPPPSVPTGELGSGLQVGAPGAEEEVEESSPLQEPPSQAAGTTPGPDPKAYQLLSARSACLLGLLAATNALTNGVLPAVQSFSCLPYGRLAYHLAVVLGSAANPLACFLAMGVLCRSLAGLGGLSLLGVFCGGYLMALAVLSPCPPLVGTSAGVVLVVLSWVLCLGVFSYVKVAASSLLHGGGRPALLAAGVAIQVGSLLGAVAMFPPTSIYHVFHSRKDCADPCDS
UniProt Q9NY26: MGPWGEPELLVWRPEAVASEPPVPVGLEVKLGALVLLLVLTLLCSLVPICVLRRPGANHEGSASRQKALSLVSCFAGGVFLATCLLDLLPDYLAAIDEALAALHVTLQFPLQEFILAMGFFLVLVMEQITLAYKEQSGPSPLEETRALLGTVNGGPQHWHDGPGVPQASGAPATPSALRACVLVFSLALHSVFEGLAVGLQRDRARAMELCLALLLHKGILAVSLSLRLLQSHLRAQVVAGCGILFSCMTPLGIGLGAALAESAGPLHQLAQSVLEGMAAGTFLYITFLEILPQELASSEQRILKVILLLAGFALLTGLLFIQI
UniProt Q96K37: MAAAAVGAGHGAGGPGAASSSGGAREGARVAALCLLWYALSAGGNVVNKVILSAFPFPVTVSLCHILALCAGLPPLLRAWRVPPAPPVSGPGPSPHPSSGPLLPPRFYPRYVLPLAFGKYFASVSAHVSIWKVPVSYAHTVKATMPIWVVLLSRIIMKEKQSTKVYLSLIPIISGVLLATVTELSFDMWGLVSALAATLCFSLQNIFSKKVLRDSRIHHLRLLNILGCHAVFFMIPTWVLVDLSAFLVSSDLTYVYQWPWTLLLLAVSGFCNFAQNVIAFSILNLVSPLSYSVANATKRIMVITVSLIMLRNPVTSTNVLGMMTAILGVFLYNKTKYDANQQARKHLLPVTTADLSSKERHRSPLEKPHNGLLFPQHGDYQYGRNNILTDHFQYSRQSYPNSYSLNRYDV
UniProt Q9H2D1: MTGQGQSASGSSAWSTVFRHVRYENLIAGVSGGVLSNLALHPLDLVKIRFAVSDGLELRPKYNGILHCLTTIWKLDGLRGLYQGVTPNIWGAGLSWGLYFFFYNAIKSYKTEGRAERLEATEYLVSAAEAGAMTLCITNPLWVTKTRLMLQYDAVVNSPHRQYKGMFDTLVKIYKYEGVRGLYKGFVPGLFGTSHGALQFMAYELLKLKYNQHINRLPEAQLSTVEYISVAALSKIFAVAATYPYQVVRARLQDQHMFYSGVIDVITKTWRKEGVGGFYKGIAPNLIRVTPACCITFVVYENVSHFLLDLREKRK
UniProt Q92504: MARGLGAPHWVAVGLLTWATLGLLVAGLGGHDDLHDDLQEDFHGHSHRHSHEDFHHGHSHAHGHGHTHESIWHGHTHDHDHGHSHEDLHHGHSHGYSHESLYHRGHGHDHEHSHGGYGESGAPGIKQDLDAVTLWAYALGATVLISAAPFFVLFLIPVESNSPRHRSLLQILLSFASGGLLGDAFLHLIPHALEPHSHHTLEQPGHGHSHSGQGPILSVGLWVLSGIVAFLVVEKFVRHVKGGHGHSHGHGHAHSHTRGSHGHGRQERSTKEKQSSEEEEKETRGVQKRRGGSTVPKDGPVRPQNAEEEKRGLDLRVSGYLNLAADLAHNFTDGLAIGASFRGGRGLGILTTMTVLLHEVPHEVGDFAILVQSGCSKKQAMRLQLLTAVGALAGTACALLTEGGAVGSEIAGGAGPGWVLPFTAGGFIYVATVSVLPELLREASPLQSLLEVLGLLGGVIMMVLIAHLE

What follows are targets tested with Cc1ccc(NC(=O)c2ccc(CN3CC[C@H](N(C)C)C3)c(C(F)(F)F)c2)cc1Nc1nccc(-c2cncnc2)n1 [bafetinib] (assay: log2 fold change, soluble protein after heating vs DMSO (PISA); higher = thermal stabilisation; K562 lysate, 10 uM; active = over 0.2 and 3.5 SD of the protein, either way, in both replicates (recomputed)).
Outline: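 A 30 min treatment with 10 μM compound was applied to crude K562 extract at 1 mg/mL protein in PBS pH 7.4 with 1 mM MgCl2. Heating for 3 min spanned 48°C-58°C, after which aliquots were pooled, adjusted to 0.5% NP-40 at 4°C and spun at 21,000xg for 90 min. TMTpro 16plex LC-MS/MS of the supernatant, with channel sums equalised, gave values recorded as log-two fold change in thermal stability against solvent controls, from duplicates.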

log2 fold change, inactive:
SLC4A1 (UniProt P02730) -0.075
SLC45A4 isoform 3 (UniProt Q5BKX6) -0.046
SLC35C1 (UniProt Q96A29) 0.061
SLC39A14 (UniProt Q15043) -0.066
SLC7A11 (UniProt Q9UPY5) -0.035
SLC5A3 (UniProt P53794) 0.013
SLC22A23 (UniProt A1A5C7) -0.147
SLC25A33 (UniProt Q9BSK2) -0.07
SLC25A44 (UniProt Q96H78) -0.037
SLC25A26 (UniProt Q70HW3) -0.027
SLC35B4 (UniProt Q969S0) 0.17
SLC25A17 (UniProt O43808) -0.066
SLC35B3 (UniProt Q9H1N7) -0.207
SLC25A51 (UniProt Q9H1U9) -0.025
SLC35F2 (UniProt Q8IXU6) 0.021
SLC26A2 (UniProt P50443) 0.233
SLC48A1 (UniProt Q6P1K1) -0.091
SLC43A1 (UniProt O75387) -0.058
SLC29A2 (UniProt Q14542) 0.045
SLC22A5 isoform 3 (UniProt O76082) -0.009
SLC3A2 (UniProt F5H867) -0.193
SLC9A6 isoform 2 (UniProt Q92581) 0.148
SLC3A2 (UniProt F5GZS6) -0.024
SLC52A2 (UniProt Q9HAB3) 0.004
SLC7A1 (UniProt P30825) -0.033
SLC7A6 (UniProt Q92536) -0.019
SLC39A1 (UniProt Q9NY26) -0.146
SLC66A1 (UniProt Q6ZP29) 0.073
SLC5A6 (UniProt Q9Y289) -0.034
SLC25A30 (UniProt Q5SVS4) -0.048
SLC35E1 (UniProt Q96K37) -0.07
SLC25A32 (UniProt Q9H2D1) -0.022
SLC9A8 isoform 2 (UniProt Q9Y2E8) 0.014
SLC2A4 (UniProt P14672) 0.079
SLC30A6 isoform 2 (UniProt Q6NXT4) 0.034
SLC25A46 (UniProt Q96AG3) 0.044
SLC31A1 (UniProt O15431) -0.055
SLC39A7 (UniProt Q92504) -0.013
SLC9A7 (UniProt Q96T83) -0.669

Three neighbouring records from above, quoted:
log2 fold change, inactive:
SLC25A17 (UniProt O43808) -0.066
SLC35B3 (UniProt Q9H1N7) -0.207
SLC25A51 (UniProt Q9H1U9) -0.025
